Common to all, as to assay: two-hybrid; Matchmaker Two-Hybrid System 3, yeast AH109; C4 on the GAL4 activation domain, AtSKs and Lamin C on the GAL4 DNA binding domain; growth curves (OD600) in quadruple dropout medium at 30°C, high stringency
The target in assay [1] is T1, Arabidopsis SHAGGY-like protein kinase AtSK11 fused to the GAL4 DNA binding domain (Arabidopsis thaliana (ecotype Sei-0 cDNA)) (UniProt P43288).
T1 sequence: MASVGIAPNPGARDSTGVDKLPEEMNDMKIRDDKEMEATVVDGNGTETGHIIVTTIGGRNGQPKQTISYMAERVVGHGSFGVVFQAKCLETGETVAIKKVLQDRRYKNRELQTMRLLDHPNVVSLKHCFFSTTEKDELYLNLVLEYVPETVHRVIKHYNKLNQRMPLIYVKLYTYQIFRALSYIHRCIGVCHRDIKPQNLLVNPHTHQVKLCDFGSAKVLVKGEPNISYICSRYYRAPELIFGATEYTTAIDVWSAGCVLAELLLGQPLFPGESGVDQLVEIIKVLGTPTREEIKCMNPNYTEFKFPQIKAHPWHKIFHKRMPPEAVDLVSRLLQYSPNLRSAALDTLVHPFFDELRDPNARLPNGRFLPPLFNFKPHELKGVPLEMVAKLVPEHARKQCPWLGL

Assay [2] deals with T2, Arabidopsis SHAGGY-like protein kinase AtSK13 fused to the GAL4 DNA binding domain (Arabidopsis thaliana (ecotype Sei-0 cDNA)) (UniProt Q8VZD5).
T2 sequence: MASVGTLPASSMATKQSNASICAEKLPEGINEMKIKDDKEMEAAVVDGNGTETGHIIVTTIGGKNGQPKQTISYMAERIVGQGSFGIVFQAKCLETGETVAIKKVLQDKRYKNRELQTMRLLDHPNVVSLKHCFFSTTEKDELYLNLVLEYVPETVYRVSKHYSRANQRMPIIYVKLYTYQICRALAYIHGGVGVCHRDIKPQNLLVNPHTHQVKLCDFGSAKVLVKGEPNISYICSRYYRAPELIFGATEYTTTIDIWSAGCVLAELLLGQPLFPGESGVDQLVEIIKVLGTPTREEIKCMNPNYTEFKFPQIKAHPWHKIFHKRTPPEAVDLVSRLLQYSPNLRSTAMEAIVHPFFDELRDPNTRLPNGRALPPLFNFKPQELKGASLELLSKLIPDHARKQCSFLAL

Assay [3] addresses T3, Arabidopsis SHAGGY-like protein kinase AtSK22 fused to the GAL4 DNA binding domain (Arabidopsis thaliana (ecotype Sei-0 cDNA)) (UniProt Q39012).
T3 sequence: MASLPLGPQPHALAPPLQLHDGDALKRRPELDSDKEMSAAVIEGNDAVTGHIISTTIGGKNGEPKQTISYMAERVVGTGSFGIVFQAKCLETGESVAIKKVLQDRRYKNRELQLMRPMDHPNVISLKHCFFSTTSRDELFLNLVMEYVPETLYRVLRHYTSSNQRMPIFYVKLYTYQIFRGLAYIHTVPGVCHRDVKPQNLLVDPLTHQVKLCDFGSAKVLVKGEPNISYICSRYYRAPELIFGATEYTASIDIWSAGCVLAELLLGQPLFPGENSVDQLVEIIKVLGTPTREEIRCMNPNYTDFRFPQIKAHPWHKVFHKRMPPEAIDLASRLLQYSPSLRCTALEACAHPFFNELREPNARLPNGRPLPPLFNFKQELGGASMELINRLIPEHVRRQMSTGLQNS

Assay [4] addresses T4, Arabidopsis SHAGGY-like protein kinase AtSK23 fused to the GAL4 DNA binding domain (Arabidopsis thaliana (ecotype Sei-0 cDNA)) (UniProt Q39010).
T4 sequence: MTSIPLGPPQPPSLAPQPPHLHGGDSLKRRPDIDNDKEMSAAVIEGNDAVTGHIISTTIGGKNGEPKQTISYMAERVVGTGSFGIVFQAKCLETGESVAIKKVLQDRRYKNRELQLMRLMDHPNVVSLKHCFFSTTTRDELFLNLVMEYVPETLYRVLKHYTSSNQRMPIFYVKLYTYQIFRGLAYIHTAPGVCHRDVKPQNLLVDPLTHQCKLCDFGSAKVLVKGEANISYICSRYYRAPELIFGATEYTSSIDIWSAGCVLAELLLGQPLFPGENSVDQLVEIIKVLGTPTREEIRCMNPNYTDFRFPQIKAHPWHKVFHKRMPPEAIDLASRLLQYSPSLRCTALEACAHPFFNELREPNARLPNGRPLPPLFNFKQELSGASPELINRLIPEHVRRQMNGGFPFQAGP

Assay [5] deals with T5, Arabidopsis SHAGGY-like protein kinase AtSK42 fused to the GAL4 DNA binding domain (Arabidopsis thaliana (ecotype Sei-0 cDNA)) (UniProt Q9FVS6).
T5 sequence: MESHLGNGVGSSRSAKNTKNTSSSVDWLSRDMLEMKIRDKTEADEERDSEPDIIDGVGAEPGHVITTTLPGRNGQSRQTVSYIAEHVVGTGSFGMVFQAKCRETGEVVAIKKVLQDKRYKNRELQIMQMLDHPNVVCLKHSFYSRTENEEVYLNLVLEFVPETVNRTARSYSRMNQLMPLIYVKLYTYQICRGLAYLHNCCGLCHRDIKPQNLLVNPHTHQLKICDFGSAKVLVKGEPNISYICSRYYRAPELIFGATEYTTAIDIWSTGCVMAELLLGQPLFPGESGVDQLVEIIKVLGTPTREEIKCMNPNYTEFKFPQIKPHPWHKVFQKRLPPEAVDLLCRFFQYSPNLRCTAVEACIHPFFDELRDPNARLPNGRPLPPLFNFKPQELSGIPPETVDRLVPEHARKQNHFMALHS

Results are given in words; binding and its absence hold for the method and conditions named. For some assays here: A result given as binding can be weak or reduced; the word gives no strength. Tags and fused reporters may be left off the sequences shown.

Regarding “Beet curly top virus (BCTV-B[US:Logan:76]) C4 protein fused to the GAL4 activation domain”, the binding entry in assay [1] is recorded as “binds”; in assay [2], “binds”; in assay [3], “binds”; in assay [4] it was “binds”; in assay [5] it was “no binding”.

Values taken from paper PMC4376871.
